1 compound from patent US20120053076A1, “METHODS FOR IDENTIFICATION” (Cambridge Enterprise Limited, priority 2009, published 2012) can be followed below.

Protein sequences, listed by entry. Tags and fused reporters are not part of them.
UniProt P28223, whole entry: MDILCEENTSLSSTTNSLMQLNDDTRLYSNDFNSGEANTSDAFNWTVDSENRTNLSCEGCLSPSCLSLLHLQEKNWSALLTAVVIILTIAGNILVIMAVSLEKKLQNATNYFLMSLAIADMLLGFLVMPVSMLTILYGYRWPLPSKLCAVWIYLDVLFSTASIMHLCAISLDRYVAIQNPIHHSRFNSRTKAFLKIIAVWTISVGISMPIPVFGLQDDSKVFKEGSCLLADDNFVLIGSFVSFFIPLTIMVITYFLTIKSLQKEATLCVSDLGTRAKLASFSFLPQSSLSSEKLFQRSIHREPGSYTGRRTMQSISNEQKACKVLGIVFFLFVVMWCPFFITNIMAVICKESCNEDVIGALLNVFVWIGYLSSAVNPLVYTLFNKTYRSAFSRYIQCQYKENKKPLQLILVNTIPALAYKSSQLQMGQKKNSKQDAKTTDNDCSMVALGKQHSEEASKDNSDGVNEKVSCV

The target in one assay is 5HT2a receptor (Homo sapiens, UniProt P28223). Briefly: [3H]-ketanserin binding to 5HT2a receptor membranes. The settings on record: 1 nM [3H]-ketanserin.
The subject of the next assay is Jurkat T cells. Briefly: SDF-1α induced migration of parental Jurkat T cells. The assay is classed as cell-based, human.

Structures were worked out from names or drawings and are uncertain.

Consider `CN1CC(C(=O)NC(CC(N)=O)C(=O)O)CC2c3cccc4[nH]cc(c34)CC21` (centres unmarked), for which the “Apparent Ka, inhibition of [3H]-ketanserin binding” value on 5HT2a receptor was found to be 23 ± 5 nM. Further, the “Inhibition of SDF-1α induced migration of Jurkat T cells, in words” value in the assay with Jurkat T cells is on record as “neither agent inhibits”.
